The chains are these.
T1: Vipp1–GFP (Synechocystis Vipp1 tagged with green fluorescent protein at the C-terminus) (Synechocystis sp. PCC6803) (UniProt Q55707)
T1 sequence: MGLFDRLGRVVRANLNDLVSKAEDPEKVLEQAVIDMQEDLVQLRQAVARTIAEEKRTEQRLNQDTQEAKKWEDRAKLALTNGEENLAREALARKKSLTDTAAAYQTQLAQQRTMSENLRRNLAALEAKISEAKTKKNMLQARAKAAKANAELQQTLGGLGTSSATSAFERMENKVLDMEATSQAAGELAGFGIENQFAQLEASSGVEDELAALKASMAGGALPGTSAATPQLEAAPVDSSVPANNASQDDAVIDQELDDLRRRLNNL

B1: (P)ppGpp 3′-pyrophosphohydrolase (protein, UniProt P74007 1-760)
chain: MNAVAALPTPTIHTTCAQDIHDIELPQWLEDCLQQWQREIEQGQDETTAPHCLICRAFCFAYDLHAQQRRKSGEPYIAHPVAVAGLLRDLGGDEAMIAAGFLHDVVEDTDISIEQIEALFGEETASLVEGVTKLSKFNFSSTTEHQAENFRRMFLAMAKDIRVIVVKLADRLHNMRTLDALSPEKQRRIARETKDIFAPLANRLGIWRFKWELEDLSFKYLEPDSYRKIQSLVVEKRGDRESRLETVKDMLRFRLRDEGIEHFELQGRPKHLYGIYYKMTSQDKAFEEIYDIAALRIIVESKGECYRALSVVHDVFKPIPGRFKDYIGLPKPNRYQSLHTTVLGLTSRPLEIQIRTEEMHHVAEYGIAAHWKYKESGGSENATLTSTDEKFTWLRQLLDWQSDLKDAQEYVENLKQNLFDDDVYVFTPKGEVISLARGATPVDFAYRIHTEVGHHMKGARVNGQWLGVDTRLKNGDIVEIVTQKNSHPSLDWLNFVVTPSARHRIRQWFKRSRRDENILRGRELLEKELGKTGLEALLKSEPMQKTAERCNYQNVEDLLAGLGYGEITSNSVVNRLRENNVNNVKNSQSSQEVTLASSPQVHPPTPPATGKDNSPIAGIEGLLYHIAGCCHPLPGEPIMGVVTRGARGISIHRQGCHNLEQMDGDRLIPVRWNPNTNNHQTYPVDIVIEAIDRVGVLKDILSRLSDNHINVRNADVKTHLGRPAIISLKIDIHDYQQLLGIMAKIKNMSDVMDLRRVISG
B2: GTP-binding protein TypA/BipA homologue (protein, UniProt P72749 1-597)
chain: MSLPIRNVAIIAHVDHGKTTLVDALLKQSGIFREGEDVPVCVMDSNDLERERGITILSKNTAVRYQDTLINIVDTPGHADFGGEVERVLGMVDGCVLIVDANEGPMPQTRFVLKKALEKGLRPLVVVNKIDRPRADPNTAVDKVFDLFVELGADDDQCDFTTLFASGLGGFAKESLDDDSEDMKPLFEAILHHVPPPAGDPNKPLQLQVTTLDYSDYLGRIIIGRIHNGTVKAGQQAALVKEDGSIAKGKVSKLLGFEGLNRIELPEASAGYIVAIAGFADANIGETLTCPDEPQALPLIKVDEPTLQMTFSVNDSPFAGQEGKFVTSRQIRDRLNRELETNVALRVEDGESAEQFLVSGRGELHLGILIETMRREGYEFQVAQPQVIYREVNGQPCEPVEYLVLDVPEAAVGACIERLGQRRGEMQDMQTSVNGRTQLEFVIPARGLLGFRGDFIRITRGEGIMNHSFLEYRPMSGDLETRYNGVMVAFEEGVATFYAMKNAEDRGVFFITPGTKVYKGMIIGEHNRPQDIELNVCKTKQLTNHRSATGDELVQLQAPEDMNLERALEYIGPDELVEITPESIRLRKVARKKLVKR
B3: Polyribonucleotide nucleotidyltransferase (protein, UniProt P72659 1-718)
chain: MQEFDKSISFDGRDIRLKMGTLAPQAGGSVLIQSGDTAVLVTATRAKGRDGIDFLPLTVDYEGRLYAAGRIPGGFLRREGRPPEKATLISRLIDRPLRPLFPHWLRDELQIVATTLSMDEEVPPDVLAVTGASVAVILAQIPFKGPMAAVRVGLVGDDFIINPTYREVHNGDLDLVVAGTPAGIVMVEAGANQLPEQDIIEAIDFGYEAVQDLINAQRELMTDLGITLATSEPPPVNTAVEEFIANRASKKIITVLGQFDLGKDGRDAALDEIKATEVETAIAELPETDPVKQSVEEDPKLVGNLYKALTKKLMRKQIVDDGVRVDGRKLEQVRPISCEVGFLPRRVHGSGLFNRGLTQVLSLATLGSPGDAQDLADDLHPEDEKRYLHHYNFPPYSVGEARPMRSPGRREIGHGALAERAIIPVLPPQEDFPYVVRVVSEVLSSNGSTSMGSVCGSTLALMDAGVPIKKPVSGAAMGLIKEGDEIRILTDIQGIEDFLGDMDFKVAGTDSGITALQMDMKIDGLSMEVVSKAIMQALPARLHILDKMLATIREPRPELSPFAPRLLTLKIEPEHIGMVIGPGGKTIKGITEQTSCKIDIADDGTVTIASSEGERAERARQMIYNMTRKLNEGEVYLGRVTRIIPIGAFVEVLPGKEGMIHISQLTEGRVGKVEDEVGVGDEVIVKVREIDSKGRLNLTRLGIHPDEAAEARRNASRG
B4: Translation initiation factor IF-2 (protein, UniProt P72689 1-1001)
chain: MNNAKVRIYDLSKELNLENRDILDICERLNVAAKSHSSTISESDAERIKAAAEKFTPQQPKKPRVASRPESKEDKSDPKQQKILAIHHKQEKSGGPSPARPTPPPRPKLQAPKAPTPPQPPVAKASAPKIQKQEEPAQEAPKSVAPPTQPLAPPPVPSLQSPPSKPAPPTPPAKKAAPAPRLAGPPGRTASPNKTAVPAPAKPKVNRPEIVSLKDNRGQARSPGDREEKVAIAAPEPPKPKVELRRPKPPRPEEDENLPELLEFPPLSRGKGVDGDNDADDGDLLSTEKPKPKLKRPTPPRLGKPDQWEDDEDEKANKAKAANKGKRRPKMDDDDDDLDIDGDNGPKPTLVSLSIARPPKPKSLAAKPSTPTVAKVKKPTLKSEAGSSAGGSSRSRGDRRDRKEVVQKPEVIMLDRSLTVRDLADLLKISETDIIKRLFLKGVAVQITQTLDEETARMVAESFEVAVETPERVAAAAKTTEMLDEADLDNLVRRPPVVTIMGHVDHGKTTLLDSIRKTKVAQGEAGGITQHIGAYHVEVEHNDKTEQIVFLDTPGHEAFTAMRARGAKVTDIAILVVAADDGVQPQTKEAISHAKAAGVPLIVAINKVDKPEANPDRIKQELSELGLLAEEWGGDTIMVPVSALNGDNLDGLLEMILLVSEVEELVANPNRQAKGTVIEANLDRTRGPVATLLIQNGTLRVGDAIVVGAVYGKIRAMIDDRGDKVEEASPSFAVEILGLGDVPAAGDEFEVFTNEKDARLQAEARAMEDRQTRLQQAMSSRKVTLSSISAQAQEGELKELNIILKADVQGSLGAILGSLEQLPQGEVQIRVLLASPGEVTETDVDLAAASGAIIIGFNTTLASGARQAADQEGVDIREYDIIYKLLDDIQGAMEGLLDPEEIESSLGTAEVRAVFPVGRGNIAGCYVQSGKIIRNRNLRVRRGDQVLFEGNIDSLKRIKEDVREVNAGYECGIGCSKFNDWKEGDIIEAYEMTMKRRTLAT

Data on 4 molecules can be found in publication PMC4297356.

Results are given in words; binding and its absence hold for the method and conditions named. In cells and extracts the contact can be indirect. Here binding means that the protein was enriched with, or labelled near, the bait; the list need not be complete. Tags and fused reporters may be left off the sequences shown.

This test has as its target T1, Vipp1–GFP (Synechocystis Vipp1 tagged with green fluorescent protein at the C-terminus) (Synechocystis sp. PCC6803). In words: affinity purification with mass spectrometry; anti-GFP microbeads (μMACS column) on lysate of HL-exposed (600 μE m^−2 s^−1) Synechocystis vipp1–gfp cells broken without detergent; bound fraction on 10% SDS-PAGE, bands identified by MS/MS; compared with LL vipp1–gfp and HL wild-type cells.
With B1, the binding entry is reported as “binds”.
In the case of B2 it was “binds”.
In the case of B3 it was “binds”.
As for B4, the entry is “binds”.
